According to patent US9796727B2, “Field effect transistor” (Nippon Kayaku Kabushiki Kaisha, priority 2009, dated 2017):

Columns and labels:
[1] = Top-contact (TC) field effect transistor, vapor-deposited semiconductor layer on HMDS-treated 300 nm SiO2/n-doped silicon; conditions: TC type; for Mobility: produced as in Example 2 (Table 3)
[2] = TC field effect transistor, semiconductor film drop cast from 1-chloronaphthalene solution; conditions: for film forming by coating method: drop casting as in Example 9
[3] = Bottom-contact (BC) field effect transistor, vapor-deposited semiconductor layer, with and without heat treatment; conditions: BC type; for Mobility after annealing: after annealing as in Example 6 (150° C., air, 1 hour); for Mobility: no annealing (Table 5)
[4] = TC field effect transistor with organic (polyimide) insulating film on ITO glass; conditions: TC type, drain voltage −60 V
[5] = BC field effect transistor, semiconductor layer spin coated from fine-particle dispersion ink; conditions: BC type, spin coating
[6] = BC field effect transistor, semiconductor layer cast coated from 1,2-dichlorobenzene ink; conditions: BC type, cast coating, 0.5% solution in 1,2-dichlorobenzene at 100° C.

Compound	Mobility [1]	Mobility after annealing [3]	Mobility [3]	film forming by coating method [2]	further results
CCCCCCCCc1ccc2cc3c(cc2c1)sc1c2cc4ccc(CCCCCCCC)cc4cc2sc31 [Compound No. 10, 6,6′-dioctyldinaphtho[2,3-b:2′,3′-f]thieno[3,2-b]thiophen]	3.1	1.0	0.68		threshold voltage ([1]; vapor deposition, HMDS-treated 300 nm SiO2): −10 V; carrier mobility ([1]; vapor deposition, HMDS-treated 300 nm SiO2, substrate about 60° C.): 3.1 cm^2/Vs; carrier mobility ([2]; TC type, drop casting of 1-chloronaphthalene solution (200° C.), dried at 60° C.): 0.17 cm^2/Vs; carrier mobility after heat treatment ([3]; heat-treated at 150° C. in the air for 1 hour): 1.00 cm^2/Vs; carrier mobility ([3]; vapor deposition, no heat treatment): 0.68 cm^2/Vs
CCCCCCCCCCc1ccc2cc3c(cc2c1)sc1c2cc4ccc(CCCCCCCCCC)cc4cc2sc31 [Compound No. 12, 6,6′-Didecyldinaphtho[2,3-b:2′,3′-f]thieno[3,2-b]thiophen]	3.7				carrier mobility [4]: 3.9 cm^2/Vs; threshold voltage [4]: −8 V; ON/OFF ratio ([5]; 1.02% dispersion in 2-propanol): 1.10×10^6; carrier mobility ([5]; 1.02% dispersion in 2-propanol): 3.93×10^−2 cm^2/Vs; threshold voltage ([5]; 1.02% dispersion in 2-propanol): −16.7 V; carrier mobility ([5]; 2.0% dispersion in tetralin, heat treated at 140° C. for 5 min): 1.84×10^−2 cm^2/Vs
CCCCCCCCCCCCc1ccc2cc3c(cc2c1)sc1c2cc4ccc(CCCCCCCCCCCC)cc4cc2sc31 [Compound No. 14, 6,6′-Didodecyldinaphtho[2,3-b:2′,3′-f]thieno[3,2-b]thiophen]		2.3	0.3		carrier mobility [6]: 0.04 cm^2/Vs
CCCCCCc1ccc2cc3c(cc2c1)sc1c2cc4ccc(CCCCCC)cc4cc2sc31 [compound 6, 6,6′-Dihexyldinaphtho[2,3-b:2′,3′-f]thieno[3,2-b]thiophen]	2.8				
c1ccc2cc3c(cc2c1)sc1c2cc4ccccc4cc2sc31 [ref. 1, dinaphtho[2,3-b:2′,3′-f]thieno[3,2-b]thiophene, reference compound]	1.2	0.06	0.11	film forming was not achieved	
CCCCc1ccc2cc3c(cc2c1)sc1c2cc4ccc(CCCC)cc4cc2sc31 [ref. 2, 6,6′-Dibutyldinaphtho[2,3-b:2′,3′-f]thieno[3,2-b]thiophen, reference compound]	0.25	0.01	0.10	film forming was not achieved	
